Measurements as given in the supplement of paper PMC6078165.
Values are relative to the signal before dosing, not to a vehicle control; the signal also falls without drug.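 The tumor cells are basal-like or mesenchymal-like triple-negative breast cancer lines cultured without fibroblasts. Reduced red signal indicates lost mitochondrial integrity, serving as a proxy for apoptotic death.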

Experiments:
Experiment in all cases: relative JC-1 red fluorescence (viability) vs pre-drug, monoculture (fraction); higher = more viable cancer cells
Settings in all cases: coculture fibroblast: none (monoculture)
MDAMB468 = system: MDAMB468
Procedure: (§1)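 JC-1 labelled TNBC cells grown in monoculture (density kept equal with unlabelled cancer cells) in 384-well plates in FluoroBrite medium, treated with one of 42 anticancer drugs at 0.1, 1, 10 or 100 uM. JC-1 red fluorescence (mitochondrial integrity, surrogate of apoptotic death) was read by plate reader every 8 h for 72 h. Values are normalised to each well's pre-drug value, with background from alamethicin. The stock of one drug was tenfold lower, so its dose labels may be too high. Monoculture values are repeated alongside each fibroblast plate and are averaged here.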

BT20 = system: BT20
Procedure: as §1

MDAMB231 = system: MDAMB231
Procedure: as §1

Hs578T = system: Hs578T
Procedure: as §1

CC(C)(C#N)c1cc(Cn2cncn2)cc(C(C)(C)C#N)c1 [Anastrozole]
relative JC-1 red fluorescence
Settings | 8 h | 16 h | 24 h | 32 h | 40 h | 48 h | 56 h | 64 h | 72 h
BT20, 0.1 µM | 0.937 | 0.848 | 0.753 | 0.683 | 0.634 | 0.598 | 0.56 | 0.54 | 0.525
BT20, 1 µM | 0.9306 | 0.8702 | 0.8053 | 0.7575 | 0.7329 | 0.7267 | 0.7018 | 0.6999 | 0.7048
BT20, 10 µM | 0.93962 | 0.865 | 0.78 | 0.7048 | 0.662 | 0.639 | 0.612 | 0.594 | 0.581
BT20, 100 µM | 0.935 | 0.912 | 0.848 | 0.807 | 0.769 | 0.766 | 0.737 | 0.73 | 0.719
Hs578T, 0.1 µM | 0.837 | 0.726 | 0.658 | 0.606 | 0.564 | 0.551 | 0.524 | 0.512 | 0.507
Hs578T, 1 µM | 0.8441 | 0.743 | 0.658 | 0.585 | 0.534 | 0.514 | 0.487 | 0.482 | 0.477
Hs578T, 10 µM | 0.842 | 0.743 | 0.656 | 0.586 | 0.52 | 0.475 | 0.441 | 0.42 | 0.4062
Hs578T, 100 µM | 0.881 | 0.8 | 0.784 | 0.734 | 0.714 | 0.711 | 0.687 | 0.706 | 0.697
MDAMB231, 0.1 µM | 0.746 | 0.663 | 0.703 | 0.623 | 0.591 | 0.61 | 0.584 | 0.613 | 0.618
MDAMB231, 1 µM | 0.7291 | 0.684 | 0.566 | 0.564 | 0.516 | 0.495 | 0.455 | 0.465 | 0.453
MDAMB231, 10 µM | 0.763 | 0.7435 | 0.659 | 0.6663 | 0.641 | 0.64 | 0.601 | 0.613 | 0.608
MDAMB231, 100 µM | 0.764 | 0.782 | 0.641 | 0.734 | 0.707 | 0.68 | 0.646 | 0.635 | 0.627
MDAMB468, 0.1 µM | 0.9035 | 0.808 | 0.746 | 0.665 | 0.602 | 0.578 | 0.531 | 0.502 | 0.486
MDAMB468, 1 µM | 0.8904 | 0.805 | 0.76 | 0.706 | 0.682 | 0.67 | 0.639 | 0.616 | 0.608
MDAMB468, 10 µM | 0.897 | 0.8211 | 0.758 | 0.679 | 0.631 | 0.604 | 0.569 | 0.549 | 0.535
MDAMB468, 100 µM | 0.8872 | 0.835 | 0.788 | 0.725 | 0.72 | 0.695 | 0.682 | 0.651 | 0.636

CO[C@H]1C[C@@H]2CC[C@@H](C)[C@@](O)(O2)C(=O)C(=O)N2CCCC[C@H]2C(=O)O[C@H]([C@H](C)C[C@@H]2CC[C@@H](O)[C@H](OC)C2)CC(=O)[C@H](C)/C=C(\C)[C@@H](O)[C@@H](OC)C(=O)[C@H](C)C[C@H](C)/C=C/C=C/C=C/1C [Rapamycin]
relative JC-1 red fluorescence
Settings | 8 h | 16 h | 24 h | 32 h | 40 h | 48 h | 56 h | 64 h | 72 h
BT20, 0.1 µM | 0.948 | 0.898 | 0.839 | 0.762 | 0.722 | 0.686 | 0.652 | 0.633 | 0.628
BT20, 1 µM | 0.937 | 0.858 | 0.794 | 0.739 | 0.694 | 0.659 | 0.626 | 0.616 | 0.596
BT20, 10 µM | 0.909 | 0.903 | 0.872 | 0.847 | 0.846 | 0.819 | 0.79 | 0.77 | 0.75
BT20, 100 µM | 0.9535 | 0.967 | 0.814 | 0.906 | 0.86 | 0.807 | 0.726 | 0.644 | 0.556
Hs578T, 0.1 µM | 0.8674 | 0.769 | 0.724 | 0.656 | 0.62 | 0.612 | 0.579 | 0.59 | 0.583
Hs578T, 1 µM | 0.826 | 0.744 | 0.7225 | 0.655 | 0.605 | 0.5893 | 0.5689 | 0.5694 | 0.563
Hs578T, 10 µM | 0.856 | 0.885 | 0.859 | 0.84 | 0.795 | 0.782 | 0.754 | 0.738 | 0.733
Hs578T, 100 µM | 0.885 | 0.848 | 0.805 | 0.857 | 0.893 | 0.828 | 0.6904 | 0.483 | 0.385
MDAMB231, 0.1 µM | 0.7871 | 0.68 | 0.73 | 0.6573 | 0.6339 | 0.649 | 0.631 | 0.671 | 0.688
MDAMB231, 1 µM | 0.731 | 0.75168 | 0.7 | 0.688 | 0.659 | 0.648 | 0.62 | 0.638 | 0.627
MDAMB231, 10 µM | 0.711 | 0.844 | 0.791 | 0.943 | 0.955 | 0.951 | 0.918 | 0.945 | 0.936
MDAMB231, 100 µM | 0.6411 | 0.767 | 0.554 | 0.745 | 0.694 | 0.625 | 0.517 | 0.394 | 0.312
MDAMB468, 0.1 µM | 0.894 | 0.818 | 0.751 | 0.659 | 0.631 | 0.605 | 0.57 | 0.544 | 0.527
MDAMB468, 1 µM | 0.903 | 0.808 | 0.795 | 0.747 | 0.705 | 0.69 | 0.6581 | 0.644 | 0.632
MDAMB468, 10 µM | 0.903 | 0.9237 | 0.918 | 0.791 | 0.732 | 0.678 | 0.603 | 0.566 | 0.54
MDAMB468, 100 µM | 0.878 | 0.744 | 0.592 | 0.427 | 0.366 | 0.315 | 0.224 | 0.153 | 0.175

O=C1c2c(O)ccc(O)c2C(=O)c2c(NCCNCCO)ccc(NCCNCCO)c21 [Mitoxantrone]
relative JC-1 red fluorescence
Settings | 8 h | 16 h | 24 h | 32 h | 40 h | 48 h | 56 h | 64 h | 72 h
BT20, 0.1 µM | 0.786 | 0.737 | 0.632 | 0.5641 | 0.5434 | 0.5283 | 0.515 | 0.51 | 0.506
BT20, 1 µM | 0.4606 | 0.374 | 0.475 | 0.464 | 0.481 | 0.472 | 0.448 | 0.45 | 0.437
BT20, 10 µM | 0.342 | 0.614 | 0.724 | 0.606 | 0.521 | 0.453 | 0.375 | 0.307 | 0.256
Hs578T, 0.1 µM | 0.7406 | 0.6651 | 0.611 | 0.585 | 0.566 | 0.543 | 0.534 | 0.54 | 0.532
Hs578T, 1 µM | 0.439 | 0.3479 | 0.408 | 0.351 | 0.343 | 0.339 | 0.323 | 0.327 | 0.319
Hs578T, 10 µM | 0.5554 | 0.554 | 0.576 | 0.411 | 0.304 | 0.236 | 0.174 | 0.122 | 0.0739
MDAMB231, 0.1 µM | 0.6663 | 0.636 | 0.538 | 0.579 | 0.565 | 0.553 | 0.5216 | 0.546 | 0.547
MDAMB231, 1 µM | 0.351 | 0.344 | 0.451 | 0.378 | 0.379 | 0.387 | 0.387 | 0.411 | 0.427
MDAMB231, 10 µM | 0.0832 | 0.0664 | 0.124 | 0.145 | 0.131 | 0.0821 | 0.0534 | 0.053 | 0.0234
MDAMB468, 0.1 µM | 0.829 | 0.781 | 0.732 | 0.701 | 0.688 | 0.665 | 0.639 | 0.622 | 0.602
MDAMB468, 1 µM | 0.7505 | 0.668 | 0.815 | 0.855 | 0.777 | 0.792 | 0.747 | 0.708 | 0.692
MDAMB468, 10 µM | 0.864 | 0.836 | 0.69 | 0.566 | 0.64 | 0.551 | 0.446 | 0.352 | 0.261
